# This is one part of the list.
# B1: RobpsCRA (Robinia pseudoacacia) (protein)
# chain: IKGGYWYSGSGLAVSDINPSHFTHLFCAFADLDPNTNKLTISSSNAAAFSTFTQTVRAKNPSVKTLLSIGGGGGRALAAVFANMASQASRRKSFIDSSIQLARRNNFHGLDLDWEYPSSDIDKTNFASLIREWRAAVATESSTSGTPALLLSAAVGGSDQITPLKYYPGEAIANNLDWVNVMTYDLYTSDSYPTLTQPPAPLFYPRGIFSADEGITKWIQSGVPESKLALGLPFYGFKWRLSDPNNHGLFAPATQGLGAVKYKDIVNTGGQVEFDSTYVTNYCFKGTDWYGYDDTQSISAKVAYAKQRGLFGYFAWHIEQDSNWALS
# What was measured:
# Assay in all cases: glycan array binding signal (z-score within array); higher = stronger binding
# Conditions in all cases: glycan notation: IUPAC condensed, linker removed
# [1] = target: Neu5Ac(a2-3)Gal(b1-3)GlcNAc(b1-2)Man(a1-3)[GlcNAc(b1-4)][Neu5Ac(a2-3)Gal(b1-3)GlcNAc(b1-2)Man(a1-6)]Man(b1-4)GlcNAc(b1-4)GlcNAc
# In short: (§1)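 The binding signal is a Z-score computed within each array. Data were drawn from 3228 arrays in the Consortium for Functional Glycomics database, restricted to those with a known protein sequence. Scores were averaged over arrays of the same protein sequence at different concentrations or buffers, and over linkers, and negative values can be taken as non-binding.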
# [2] = target: Neu5Ac(a2-3)Gal(b1-3)GlcNAc(b1-2)Man(a1-3)[Neu5Ac(a2-3)Gal(b1-3)GlcNAc(b1-2)Man(a1-6)]Man(b1-4)GlcNAc(b1-4)GlcNAc
# In short: as §1
# [3] = target: Neu5Ac(a2-3)Gal(b1-3)GlcNAc(b1-3)Gal(b1-3)GlcNAc
# In short: as §1
# [4] = target: Neu5Ac(a2-3)Gal(b1-3)GlcNAc(b1-3)Gal(b1-4)GlcNAc
# In short: as §1
# [5] = target: Neu5Ac(a2-3)Gal(b1-3)GlcNAc(b1-3)GalNAc
# In short: as §1
# [6] = target: Neu5Ac(a2-3)Gal(b1-3)GlcNAc(b1-4)Gal(b1-4)Glc
# In short: as §1
# [7] = target: Neu5Ac(a2-3)Gal(b1-3)GlcNAc(b1-6)GalNAc
# In short: as §1
# [8] = target: Neu5Ac(a2-3)Gal(b1-3)GlcNAc6S
# In short: as §1
# [9] = target: Neu5Ac(a2-3)Gal(b1-3)[Fuc(a1-4)]GlcNAc
# In short: as §1
# [10] = target: Neu5Ac(a2-3)Gal(b1-3)[Fuc(a1-4)]GlcNAc(b1-3)Gal(b1-3)[Fuc(a1-4)]GlcNAc
# In short: as §1
# [11] = target: Neu5Ac(a2-3)Gal(b1-3)[Fuc(a1-4)]GlcNAc(b1-3)Gal(b1-4)[Fuc(a1-3)]GlcNAc
# In short: as §1
# [12] = target: Neu5Ac(a2-3)Gal(b1-3)[GlcNAc(b1-6)]GalNAc
# In short: as §1
# [13] = target: Neu5Ac(a2-3)Gal(b1-3)[Neu5Ac(a2-6)]GalNAc
# In short: as §1
# [14] = target: Neu5Ac(a2-3)Gal(b1-3)[Neu5Ac(a2-6)]GlcNAc(b1-3)[Fuc(a1-3)[Gal(b1-4)]GlcNAc(b1-6)]Gal(b1-4)Glc
# In short: as §1
# [15] = target: Neu5Ac(a2-3)Gal(b1-3)]Neu5Ac(a2-3)Gal(b1-4)]GlcNAc
# In short: as §1
# [16] = target: Neu5Ac(a2-3)Gal(b1-4)Glc
# In short: as §1
# [17] = target: Neu5Ac(a2-3)Gal(b1-4)GlcNAc
# In short: as §1
# [18] = target: Neu5Ac(a2-3)Gal(b1-4)GlcNAc(b1-2)Man
# In short: as §1
# [19] = target: Neu5Ac(a2-3)Gal(b1-4)GlcNAc(b1-2)Man(a1-3)[GlcNAc(b1-4)][Neu5Ac(a2-3)Gal(b1-4)GlcNAc(b1-2)Man(a1-6)]Man(b1-4)GlcNAc(b1-4)GlcNAc
# In short: as §1
# [20] = target: Neu5Ac(a2-3)Gal(b1-4)GlcNAc(b1-2)Man(a1-3)[Neu5Ac(a2-3)Gal(b1-4)GlcNAc(b1-2)Man(a1-6)]Man(b1-4)GlcNAc(b1-4)GlcNAc
# In short: as §1
# [21] = target: Neu5Ac(a2-3)Gal(b1-4)GlcNAc(b1-2)Man(a1-3)[Neu5Ac(a2-3)Gal(b1-4)GlcNAc(b1-2)Man(a1-6)]Man(b1-4)GlcNAc(b1-4)[Fuc(a1-6)]GlcNAc
# In short: as §1
# [22] = target: Neu5Ac(a2-3)Gal(b1-4)GlcNAc(b1-2)Man(a1-3)[Neu5Ac(a2-6)Gal(b1-4)GlcNAc(b1-2)Man(a1-6)]Man(b1-4)GlcNAc(b1-4)GlcNAc
# In short: as §1
# [23] = target: Neu5Ac(a2-3)Gal(b1-4)GlcNAc(b1-2)[Neu5Ac(a2-3)Gal(b1-4)GlcNAc(b1-4)]Man(a1-3)[GlcNAc(b1-4)][Neu5Ac(a2-3)Gal(b1-4)GlcNAc(b1-2)[Neu5Ac(a2-3)Gal(b1-4)GlcNAc(b1-6)]Man(a1-6)]Man(b1-4)GlcNAc(b1-4)GlcNAc
# In short: as §1
# [24] = target: Neu5Ac(a2-3)Gal(b1-4)GlcNAc(b1-2)[Neu5Ac(a2-3)Gal(b1-4)GlcNAc(b1-4)]Man(a1-3)[GlcNAc(b1-4)][Neu5Ac(a2-3)Gal(b1-4)GlcNAc(b1-4)Man(a1-6)]Man(b1-4)GlcNAc(b1-4)GlcNAc
# In short: as §1
# [25] = target: Neu5Ac(a2-3)Gal(b1-4)GlcNAc(b1-2)[Neu5Ac(a2-3)Gal(b1-4)GlcNAc(b1-6)]Man(a1-6)[Neu5Ac(a2-3)Gal(b1-4)GlcNAc(b1-2)Man(a1-3)]Man(b1-4)GlcNAc(b1-4)GlcNAc
# In short: as §1
# [26] = target: Neu5Ac(a2-3)Gal(b1-4)GlcNAc(b1-2)[Neu5Ac(a2-3)Gal(b1-4)GlcNAc(b1-6)]Man(a1-6)[Neu5Ac(a2-3)Gal(b1-4)GlcNAc(b1-2)Man(a1-3)][GlcNAc(b1-4)]Man(b1-4)GlcNAc(b1-4)GlcNAc
# In short: as §1
# [27] = target: Neu5Ac(a2-3)Gal(b1-4)GlcNAc(b1-3)Gal
# In short: as §1
# [28] = target: Neu5Ac(a2-3)Gal(b1-4)GlcNAc(b1-3)Gal(b1-3)GlcNAc
# In short: as §1
# [29] = target: Neu5Ac(a2-3)Gal(b1-4)GlcNAc(b1-3)Gal(b1-4)GlcNAc
# In short: as §1
# [30] = target: Neu5Ac(a2-3)Gal(b1-4)GlcNAc(b1-3)Gal(b1-4)GlcNAc(b1-2)Man(a1-3)[Neu5Ac(a2-3)Gal(b1-4)GlcNAc(b1-3)Gal(b1-4)GlcNAc(b1-2)Man(a1-6)]Man(b1-4)GlcNAc(b1-4)GlcNAc
# In short: as §1
# [31] = target: Neu5Ac(a2-3)Gal(b1-4)GlcNAc(b1-3)Gal(b1-4)GlcNAc(b1-3)Gal(b1-4)GlcNAc
# In short: as §1
# [32] = target: Neu5Ac(a2-3)Gal(b1-4)GlcNAc(b1-3)Gal(b1-4)GlcNAc(b1-3)Gal(b1-4)GlcNAc(b1-2)Man(a1-3)[Neu5Ac(a2-3)Gal(b1-4)GlcNAc(b1-3)Gal(b1-4)GlcNAc(b1-3)Gal(b1-4)GlcNAc(b1-2)Man(a1-6)]GalNAc
# In short: as §1
# [33] = target: Neu5Ac(a2-3)Gal(b1-4)GlcNAc(b1-3)Gal(b1-4)GlcNAc(b1-3)GalNAc
# In short: as §1
# [34] = target: Neu5Ac(a2-3)Gal(b1-4)GlcNAc(b1-3)Gal(b1-4)GlcNAc(b1-3)[Neu5Ac(a2-3)Gal(b1-4)GlcNAc(b1-3)Gal(b1-4)GlcNAc(b1-6)]GalNAc
# In short: as §1
# [35] = target: Neu5Ac(a2-3)Gal(b1-4)GlcNAc(b1-3)Gal(b1-4)GlcNAc(b1-6)[Gal(b1-3)]GalNAc
# In short: as §1
# [36] = target: Neu5Ac(a2-3)Gal(b1-4)GlcNAc(b1-3)Gal(b1-4)[Fuc(a1-3)]GlcNAc
# In short: as §1
# [37] = target: Neu5Ac(a2-3)Gal(b1-4)GlcNAc(b1-3)GalNAc
# In short: as §1
# [38] = target: Neu5Ac(a2-3)Gal(b1-4)GlcNAc(b1-3)[Neu5Ac(a2-3)Gal(b1-4)GlcNAc(b1-6)]GalNAc
# In short: as §1
binder,measurement,setting,value
B1,glycan array binding signal (z-score),[1],-0.189
same,glycan array binding signal (z-score),[2],-0.877
same,glycan array binding signal (z-score),[3],0.075
same,glycan array binding signal (z-score),[4],-0.578
same,glycan array binding signal (z-score),[5],-0.216
same,glycan array binding signal (z-score),[6],-0.249
same,glycan array binding signal (z-score),[7],0.248
same,glycan array binding signal (z-score),[8],0.702
same,glycan array binding signal (z-score),[9],-0.434
same,glycan array binding signal (z-score),[10],-0.559
same,glycan array binding signal (z-score),[11],-0.344
same,glycan array binding signal (z-score),[12],0.725
same,glycan array binding signal (z-score),[13],-0.113
same,glycan array binding signal (z-score),[14],-0.376
same,glycan array binding signal (z-score),[15],-0.503
same,glycan array binding signal (z-score),[16],-0.481
same,glycan array binding signal (z-score),[17],-0.255
same,glycan array binding signal (z-score),[18],0.434
same,glycan array binding signal (z-score),[19],1.4
same,glycan array binding signal (z-score),[20],0.078
same,glycan array binding signal (z-score),[21],0.582
same,glycan array binding signal (z-score),[22],-0.281
same,glycan array binding signal (z-score),[23],-0.544
same,glycan array binding signal (z-score),[24],0.18
same,glycan array binding signal (z-score),[25],-0.526
same,glycan array binding signal (z-score),[26],-0.509
same,glycan array binding signal (z-score),[27],0.104
same,glycan array binding signal (z-score),[28],0.234
same,glycan array binding signal (z-score),[29],0.083
same,glycan array binding signal (z-score),[30],-0.813
same,glycan array binding signal (z-score),[31],-0.227
same,glycan array binding signal (z-score),[32],0.307
same,glycan array binding signal (z-score),[33],0.576
same,glycan array binding signal (z-score),[34],-0.108
same,glycan array binding signal (z-score),[35],-0.682
same,glycan array binding signal (z-score),[36],0.187
same,glycan array binding signal (z-score),[37],-0.671
same,glycan array binding signal (z-score),[38],0.369

# A second format for part of the listing above.
binder | measurement | setting | value
B1 | glycan array binding signal (z-score) | [3] | 0.075
same | glycan array binding signal (z-score) | [4] | -0.578
same | glycan array binding signal (z-score) | [5] | -0.216
same | glycan array binding signal (z-score) | [6] | -0.249
same | glycan array binding signal (z-score) | [7] | 0.248
same | glycan array binding signal (z-score) | [8] | 0.702
same | glycan array binding signal (z-score) | [9] | -0.434
same | glycan array binding signal (z-score) | [10] | -0.559
same | glycan array binding signal (z-score) | [11] | -0.344
same | glycan array binding signal (z-score) | [12] | 0.725
same | glycan array binding signal (z-score) | [13] | -0.113

# Source: the supplement of paper PMC8728848
